# From the supplement of paper PMC6411743
# Amino acid sequences for entries named in this document (tags omitted). A change or cut given only in a name is not applied to a line headed by its entry.
# UniProt Q96QD8: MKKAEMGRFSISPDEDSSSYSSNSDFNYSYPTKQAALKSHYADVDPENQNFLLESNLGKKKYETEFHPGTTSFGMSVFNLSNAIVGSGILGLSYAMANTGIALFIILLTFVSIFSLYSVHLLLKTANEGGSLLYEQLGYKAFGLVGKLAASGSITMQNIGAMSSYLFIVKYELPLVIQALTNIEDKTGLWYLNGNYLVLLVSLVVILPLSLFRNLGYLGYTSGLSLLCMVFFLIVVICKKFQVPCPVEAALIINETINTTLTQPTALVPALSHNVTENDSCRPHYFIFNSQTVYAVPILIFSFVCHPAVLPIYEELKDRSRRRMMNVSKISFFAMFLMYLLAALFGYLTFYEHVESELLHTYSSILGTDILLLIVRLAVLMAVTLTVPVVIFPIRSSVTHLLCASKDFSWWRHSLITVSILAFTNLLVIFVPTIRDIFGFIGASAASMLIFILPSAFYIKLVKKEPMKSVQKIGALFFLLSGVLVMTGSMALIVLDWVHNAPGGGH
# UniProt P11413, whole entry: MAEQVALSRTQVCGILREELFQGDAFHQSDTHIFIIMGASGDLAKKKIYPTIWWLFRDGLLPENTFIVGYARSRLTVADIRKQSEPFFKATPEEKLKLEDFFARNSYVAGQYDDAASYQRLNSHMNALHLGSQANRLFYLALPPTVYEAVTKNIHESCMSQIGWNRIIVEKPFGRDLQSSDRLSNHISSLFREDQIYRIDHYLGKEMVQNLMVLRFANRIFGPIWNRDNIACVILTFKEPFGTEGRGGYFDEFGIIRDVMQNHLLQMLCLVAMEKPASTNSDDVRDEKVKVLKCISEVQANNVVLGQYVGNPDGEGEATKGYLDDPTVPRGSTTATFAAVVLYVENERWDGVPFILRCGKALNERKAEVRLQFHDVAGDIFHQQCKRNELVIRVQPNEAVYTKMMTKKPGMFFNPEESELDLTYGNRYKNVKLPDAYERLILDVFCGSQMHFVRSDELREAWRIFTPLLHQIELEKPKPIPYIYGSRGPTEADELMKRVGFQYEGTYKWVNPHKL
# UniProt Q6NXR4: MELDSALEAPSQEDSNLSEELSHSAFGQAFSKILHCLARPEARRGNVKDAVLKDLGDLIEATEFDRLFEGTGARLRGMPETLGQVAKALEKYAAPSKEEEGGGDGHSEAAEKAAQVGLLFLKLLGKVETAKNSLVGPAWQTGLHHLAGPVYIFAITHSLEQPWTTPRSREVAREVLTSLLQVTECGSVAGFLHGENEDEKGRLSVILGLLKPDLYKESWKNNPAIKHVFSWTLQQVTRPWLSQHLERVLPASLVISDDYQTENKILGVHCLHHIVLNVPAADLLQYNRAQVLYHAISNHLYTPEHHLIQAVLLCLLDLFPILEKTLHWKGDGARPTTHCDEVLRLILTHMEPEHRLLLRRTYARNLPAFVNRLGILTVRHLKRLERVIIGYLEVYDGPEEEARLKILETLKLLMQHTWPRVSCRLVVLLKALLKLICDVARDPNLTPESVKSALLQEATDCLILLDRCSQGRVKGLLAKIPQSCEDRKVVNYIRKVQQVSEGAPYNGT
# UniProt P63104: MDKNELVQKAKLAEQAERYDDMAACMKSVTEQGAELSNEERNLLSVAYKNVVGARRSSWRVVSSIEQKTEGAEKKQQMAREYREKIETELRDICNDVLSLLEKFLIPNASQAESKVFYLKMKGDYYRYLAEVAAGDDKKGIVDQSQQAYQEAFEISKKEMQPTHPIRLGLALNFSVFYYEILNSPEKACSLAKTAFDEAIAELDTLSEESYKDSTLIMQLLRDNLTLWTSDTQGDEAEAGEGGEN
# UniProt Q9H9L4: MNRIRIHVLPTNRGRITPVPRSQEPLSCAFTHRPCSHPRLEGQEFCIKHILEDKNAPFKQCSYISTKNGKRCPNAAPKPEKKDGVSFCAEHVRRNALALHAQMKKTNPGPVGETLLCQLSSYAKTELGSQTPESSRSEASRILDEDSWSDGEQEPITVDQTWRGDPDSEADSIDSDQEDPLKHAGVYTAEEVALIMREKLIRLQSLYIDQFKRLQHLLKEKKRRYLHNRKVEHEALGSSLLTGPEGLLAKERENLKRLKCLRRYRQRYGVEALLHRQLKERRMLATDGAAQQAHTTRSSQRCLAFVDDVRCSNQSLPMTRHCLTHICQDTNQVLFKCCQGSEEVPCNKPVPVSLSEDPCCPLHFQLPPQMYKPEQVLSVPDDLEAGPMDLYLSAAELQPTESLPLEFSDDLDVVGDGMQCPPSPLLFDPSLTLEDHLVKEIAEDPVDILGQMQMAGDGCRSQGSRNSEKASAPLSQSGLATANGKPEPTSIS
# UniProt Q8N9N8: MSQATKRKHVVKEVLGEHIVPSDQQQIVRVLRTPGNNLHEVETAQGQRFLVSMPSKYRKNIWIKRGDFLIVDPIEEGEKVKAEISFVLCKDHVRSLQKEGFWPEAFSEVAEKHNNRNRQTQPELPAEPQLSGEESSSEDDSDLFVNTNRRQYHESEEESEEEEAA
# UniProt Q9H0R8, whole entry, looked up: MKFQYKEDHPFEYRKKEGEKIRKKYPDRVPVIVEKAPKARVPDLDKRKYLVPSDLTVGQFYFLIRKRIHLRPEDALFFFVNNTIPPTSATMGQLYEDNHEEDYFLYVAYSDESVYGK
# UniProt Q00537: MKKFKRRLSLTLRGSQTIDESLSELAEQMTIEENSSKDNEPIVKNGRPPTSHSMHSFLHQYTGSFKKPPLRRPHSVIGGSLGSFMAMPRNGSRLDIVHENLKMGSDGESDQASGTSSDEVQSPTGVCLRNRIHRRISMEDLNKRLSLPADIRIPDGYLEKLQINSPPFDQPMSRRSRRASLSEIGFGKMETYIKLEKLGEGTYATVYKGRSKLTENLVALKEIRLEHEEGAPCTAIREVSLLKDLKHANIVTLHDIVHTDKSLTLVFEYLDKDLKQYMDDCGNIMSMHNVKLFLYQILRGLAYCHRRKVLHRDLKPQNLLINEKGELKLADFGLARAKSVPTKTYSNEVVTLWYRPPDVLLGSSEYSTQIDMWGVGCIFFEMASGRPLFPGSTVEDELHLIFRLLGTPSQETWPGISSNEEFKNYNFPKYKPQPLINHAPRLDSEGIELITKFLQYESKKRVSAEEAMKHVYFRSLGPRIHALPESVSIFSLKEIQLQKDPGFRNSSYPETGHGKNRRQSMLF
# UniProt Q13435: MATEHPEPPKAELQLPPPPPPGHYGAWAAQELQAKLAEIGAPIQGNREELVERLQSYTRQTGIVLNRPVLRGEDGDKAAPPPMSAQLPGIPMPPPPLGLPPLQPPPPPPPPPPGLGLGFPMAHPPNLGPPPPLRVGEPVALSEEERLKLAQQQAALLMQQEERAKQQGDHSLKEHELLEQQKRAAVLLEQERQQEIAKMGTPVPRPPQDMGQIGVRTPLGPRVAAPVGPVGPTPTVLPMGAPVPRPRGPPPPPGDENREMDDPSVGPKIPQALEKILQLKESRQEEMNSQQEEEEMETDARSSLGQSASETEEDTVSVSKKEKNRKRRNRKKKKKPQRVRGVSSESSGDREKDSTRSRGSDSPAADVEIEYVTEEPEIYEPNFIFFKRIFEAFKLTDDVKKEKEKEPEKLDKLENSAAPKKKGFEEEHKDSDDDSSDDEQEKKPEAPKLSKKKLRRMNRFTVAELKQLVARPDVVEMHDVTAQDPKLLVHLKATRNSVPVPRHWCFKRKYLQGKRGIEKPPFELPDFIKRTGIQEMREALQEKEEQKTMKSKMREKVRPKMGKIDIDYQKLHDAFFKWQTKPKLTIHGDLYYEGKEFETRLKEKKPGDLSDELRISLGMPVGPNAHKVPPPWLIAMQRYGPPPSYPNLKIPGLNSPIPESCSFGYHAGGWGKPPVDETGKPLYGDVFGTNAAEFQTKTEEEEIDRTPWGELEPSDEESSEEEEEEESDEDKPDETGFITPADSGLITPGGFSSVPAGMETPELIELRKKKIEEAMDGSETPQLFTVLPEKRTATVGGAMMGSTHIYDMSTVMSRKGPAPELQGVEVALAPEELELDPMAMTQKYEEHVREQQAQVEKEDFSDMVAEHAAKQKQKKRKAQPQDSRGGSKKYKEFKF
# UniProt Q15436: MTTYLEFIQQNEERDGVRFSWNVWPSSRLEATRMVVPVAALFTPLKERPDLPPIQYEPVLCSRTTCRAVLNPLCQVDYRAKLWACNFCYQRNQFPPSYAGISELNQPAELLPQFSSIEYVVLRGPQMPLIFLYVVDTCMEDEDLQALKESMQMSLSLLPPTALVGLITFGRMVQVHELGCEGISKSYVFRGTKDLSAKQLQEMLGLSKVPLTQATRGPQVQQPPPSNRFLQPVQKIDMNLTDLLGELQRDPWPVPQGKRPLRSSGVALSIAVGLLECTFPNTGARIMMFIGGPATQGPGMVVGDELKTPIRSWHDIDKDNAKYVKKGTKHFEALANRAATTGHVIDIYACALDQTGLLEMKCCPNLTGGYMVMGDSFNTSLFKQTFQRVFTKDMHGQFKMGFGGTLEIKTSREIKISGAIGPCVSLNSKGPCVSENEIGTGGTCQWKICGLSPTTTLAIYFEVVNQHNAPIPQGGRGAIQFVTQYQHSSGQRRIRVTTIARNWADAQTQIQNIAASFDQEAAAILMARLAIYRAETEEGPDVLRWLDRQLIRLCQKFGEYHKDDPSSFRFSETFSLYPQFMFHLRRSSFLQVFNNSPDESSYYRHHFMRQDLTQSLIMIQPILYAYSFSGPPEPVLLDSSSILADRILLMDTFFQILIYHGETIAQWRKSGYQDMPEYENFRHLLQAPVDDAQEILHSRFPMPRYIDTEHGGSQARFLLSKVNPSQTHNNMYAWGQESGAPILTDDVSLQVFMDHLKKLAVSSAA
# UniProt O75431: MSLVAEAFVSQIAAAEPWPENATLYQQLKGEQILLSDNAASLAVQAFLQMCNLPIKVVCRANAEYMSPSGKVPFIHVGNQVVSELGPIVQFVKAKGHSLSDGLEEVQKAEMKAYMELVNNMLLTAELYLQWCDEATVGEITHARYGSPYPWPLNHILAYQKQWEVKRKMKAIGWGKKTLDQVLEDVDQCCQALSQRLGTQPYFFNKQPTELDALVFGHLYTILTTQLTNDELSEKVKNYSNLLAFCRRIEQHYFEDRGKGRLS
# UniProt O00746: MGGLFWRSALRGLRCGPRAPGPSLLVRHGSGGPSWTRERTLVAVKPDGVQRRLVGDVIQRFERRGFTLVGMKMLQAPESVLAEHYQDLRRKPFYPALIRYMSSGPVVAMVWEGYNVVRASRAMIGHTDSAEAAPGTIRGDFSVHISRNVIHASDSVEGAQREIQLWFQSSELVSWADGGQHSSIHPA
# UniProt Q13586, whole entry: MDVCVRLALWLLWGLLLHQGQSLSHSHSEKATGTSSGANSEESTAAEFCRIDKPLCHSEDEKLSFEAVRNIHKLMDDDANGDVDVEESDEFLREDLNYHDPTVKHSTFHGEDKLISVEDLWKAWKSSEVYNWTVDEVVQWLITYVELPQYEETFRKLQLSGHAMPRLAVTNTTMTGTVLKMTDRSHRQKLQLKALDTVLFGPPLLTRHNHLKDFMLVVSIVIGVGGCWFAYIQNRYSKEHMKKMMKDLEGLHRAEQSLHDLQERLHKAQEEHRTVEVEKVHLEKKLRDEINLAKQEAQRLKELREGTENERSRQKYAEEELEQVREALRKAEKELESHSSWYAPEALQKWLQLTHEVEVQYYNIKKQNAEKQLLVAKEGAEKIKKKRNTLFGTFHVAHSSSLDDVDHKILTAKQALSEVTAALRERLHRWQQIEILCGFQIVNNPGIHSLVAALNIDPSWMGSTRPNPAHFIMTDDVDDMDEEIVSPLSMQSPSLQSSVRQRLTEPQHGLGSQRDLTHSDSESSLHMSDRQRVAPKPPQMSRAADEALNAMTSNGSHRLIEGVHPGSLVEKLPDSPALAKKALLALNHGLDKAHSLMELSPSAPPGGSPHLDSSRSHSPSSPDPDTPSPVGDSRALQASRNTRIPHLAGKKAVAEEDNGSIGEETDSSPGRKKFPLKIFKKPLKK
# UniProt P49821, whole entry: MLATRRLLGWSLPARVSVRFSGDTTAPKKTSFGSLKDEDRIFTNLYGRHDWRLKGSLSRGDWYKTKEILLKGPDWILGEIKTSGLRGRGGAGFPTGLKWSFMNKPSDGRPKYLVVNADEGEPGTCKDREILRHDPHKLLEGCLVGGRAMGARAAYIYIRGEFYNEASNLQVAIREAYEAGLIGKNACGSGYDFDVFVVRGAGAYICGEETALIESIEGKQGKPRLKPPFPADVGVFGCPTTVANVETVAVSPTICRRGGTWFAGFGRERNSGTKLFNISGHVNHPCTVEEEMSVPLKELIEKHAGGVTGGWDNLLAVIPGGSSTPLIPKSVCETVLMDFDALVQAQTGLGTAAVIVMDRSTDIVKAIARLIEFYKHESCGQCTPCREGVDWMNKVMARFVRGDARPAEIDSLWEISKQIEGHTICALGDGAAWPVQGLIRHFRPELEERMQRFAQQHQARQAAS
# UniProt Q8N8R7: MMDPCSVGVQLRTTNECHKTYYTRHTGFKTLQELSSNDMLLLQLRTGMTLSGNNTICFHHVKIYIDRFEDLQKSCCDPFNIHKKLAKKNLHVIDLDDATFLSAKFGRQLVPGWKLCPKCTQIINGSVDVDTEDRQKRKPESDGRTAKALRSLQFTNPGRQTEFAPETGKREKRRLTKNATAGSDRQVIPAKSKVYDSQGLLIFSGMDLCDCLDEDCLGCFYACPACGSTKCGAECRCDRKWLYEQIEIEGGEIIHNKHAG
# ± gives the standard deviation of the averaged measurements. The entries are a selection whose mix differs from that of the whole data set. Small differences around the control level are noise.
# Compound: Nc1ncnc2c1ncn2[C@@H]1O[C@H](COP(=O)(O)OP(=O)(O)NP(=O)(O)O)[C@@H](O)[C@H]1O [adenylyl imidodiphosphate]
# Assay: NP40-soluble protein abundance relative to vehicle (solubility fold change) (ratio); higher = more soluble protein in presence of AMP-PNP
# Details: concentration: 0.1mM
# Summary of the method: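 Across three independent experiments, values are fold changes against the detergent-processed vehicle for each replicate, based on vsn-normalised intensities. The samples were Jurkat crude lysate treated with eight concentrations (0.1 to 10 mM) for 10 min at room temperature and then 3 min at 37 °C. Lysate was solubilised with 0.8% NP40 and benzonase, ultracentrifuged, and the supernatant analysed by TMT-labelled LC-MS/MS.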
row,Target,NP40-soluble protein abundance
1,E9PLV1 and related entries (UniProt Q9NQV6),1.02 ± 0.012
2,F8VUY8 and related entries (UniProt Q96QD8),0.983 ± 0.023
3,E7EW84 and related entries (UniProt Q8TAG9),1.01 ± 0.029
4,E9PNY1 and related entries (UniProt O95159),1.03 ± 0.061
5,E7EQN5 and related entries (UniProt P98171),1.01 ± 0.023
6,E7EVA0 and related entries (UniProt P27816),0.974 ± 0.011
7,E7EUI8 and related entries (UniProt P11413),1.04 ± 0.042
8,E9PJJ5 and related entries (UniProt Q4G0X4),1.041 ± 0.0086
9,F5H7T0 and related entries (UniProt Q96S38),0.996 ± 0.022
10,E5RIH5 and related entries (UniProt Q6NXR4),0.97 ± 0.046
11,E7EVZ2 and related entries (UniProt P63104),0.996 ± 0.037
12,E7ETP9 and related entries (UniProt Q9UQV4),0.99 ± 0.021
13,F8VXC8 and related entries (UniProt Q8TAQ2),1.004 ± 0.0082
14,F8VX10 and related entries (UniProt Q9H9L4),0.993 ± 0.021
15,F2Z2W7 and related entries (UniProt Q8IZ69),1.036 ± 0.0024
16,E9PLI6 and related entries (UniProt Q8N9N8),0.962 ± 0.014
17,F5GZY7 and related entries (UniProt Q9H0R8),0.98 ± 0.01
18,F8VYC4 and related entries (UniProt P0DJD1+P0DJD0+F8VYC4),1.01 ± 0.048
19,F8WAN1 and related entries (UniProt Q69YQ0),1.03 ± 0.02

row,Target,NP40-soluble protein abundance
1,E7ESL0 and related entries (UniProt Q9NWU5),1.07 ± 0.079
2,F8W1S5 and related entries (UniProt Q00537),1.02 ± 0.029
3,F8W057 and related entries (UniProt Q9GZN1),1.01 ± 0.029
4,F8WEA6 and related entries (UniProt O75439),0.99 ± 0.028
5,F5H5D3 and related entries (UniProt Q9BQE3),0.978 ± 0.055
6,E5RK69 and related entries (UniProt P08133),1 ± 0.02
7,E9PJ04 and related entries (UniProt Q13435),0.999 ± 0.026
8,F5H365 and related entries (UniProt Q15436),1.02 ± 0.033
9,F8WE26 and related entries (UniProt O75431),1.01 ± 0.014
10,F5GZ82 and related entries (UniProt Q9NP50),0.973 ± 0.018
11,F2Z2X0 and related entries (UniProt O00746),1.06 ± 0.028
12,G0XQ39 and related entries (UniProt Q13586),0.9874 ± 0.0067
13,E9PJH7 and related entries (UniProt Q9H936),1.01 ± 0.028
14,E9PB90 and related entries (UniProt P52789),0.985 ± 0.032
15,F8WC89 (UniProt A6NKF1),0.919 ± 0.063
16,F8VXU5 and related entries (UniProt Q9UBQ0),1.01 ± 0.021
17,G3V0I5 and related entries (UniProt P49821),1.04 ± 0.047
18,E9PRK7 and related entries (UniProt Q8N8R7),0.9714 ± 0.0044

# Same assay, conditions: concentration: 0.5mM
row,Target,NP40-soluble protein abundance
1,E9PLV1 and related entries (UniProt Q9NQV6),1.01 ± 0.012
2,F8VUY8 and related entries (UniProt Q96QD8),1.003 ± 0.0043
3,E7EW84 and related entries (UniProt Q8TAG9),1.007 ± 0.0056
4,E9PNY1 and related entries (UniProt O95159),1.01 ± 0.059
5,E7EQN5 and related entries (UniProt P98171),1.02 ± 0.085
6,E7EVA0 and related entries (UniProt P27816),1.03 ± 0.069
7,E7EUI8 and related entries (UniProt P11413),1 ± 0.09
8,E9PJJ5 and related entries (UniProt Q4G0X4),0.996 ± 0.014
9,F5H7T0 and related entries (UniProt Q96S38),0.988 ± 0.017
10,E5RIH5 and related entries (UniProt Q6NXR4),0.96 ± 0.043
11,E7EVZ2 and related entries (UniProt P63104),1.04 ± 0.073
12,E7ETP9 and related entries (UniProt Q9UQV4),0.98 ± 0.025
13,F8VXC8 and related entries (UniProt Q8TAQ2),1.02 ± 0.043
14,F8VX10 and related entries (UniProt Q9H9L4),0.999 ± 0.04
15,F2Z2W7 and related entries (UniProt Q8IZ69),1.01 ± 0.043
16,E9PLI6 and related entries (UniProt Q8N9N8),0.953 ± 0.034
17,F5GZY7 and related entries (UniProt Q9H0R8),1.02 ± 0.049
18,F8VYC4 and related entries (UniProt P0DJD1+P0DJD0+F8VYC4),0.998 ± 0.015
19,F8WAN1 and related entries (UniProt Q69YQ0),1.03 ± 0.047

row,Target,NP40-soluble protein abundance
1,E7ESL0 and related entries (UniProt Q9NWU5),1 ± 0.074
2,F8W1S5 and related entries (UniProt Q00537),1.01 ± 0.027
3,F8W057 and related entries (UniProt Q9GZN1),1 ± 0.031
4,F8WEA6 and related entries (UniProt O75439),1.02 ± 0.026
5,F5H5D3 and related entries (UniProt Q9BQE3),1.01 ± 0.044
6,E5RK69 and related entries (UniProt P08133),1.01 ± 0.039
7,E9PJ04 and related entries (UniProt Q13435),1.03 ± 0.053
8,F5H365 and related entries (UniProt Q15436),0.995 ± 0.041
9,F8WE26 and related entries (UniProt O75431),0.997 ± 0.051
10,F5GZ82 and related entries (UniProt Q9NP50),0.954 ± 0.051
11,F2Z2X0 and related entries (UniProt O00746),1.07 ± 0.019
12,G0XQ39 and related entries (UniProt Q13586),1 ± 0.034
13,E9PJH7 and related entries (UniProt Q9H936),1.01 ± 0.032
14,E9PB90 and related entries (UniProt P52789),0.991 ± 0.022
15,F8WC89 (UniProt A6NKF1),0.927 ± 0.1
16,F8VXU5 and related entries (UniProt Q9UBQ0),1 ± 0.11
17,G3V0I5 and related entries (UniProt P49821),1.03 ± 0.016
18,E9PRK7 and related entries (UniProt Q8N8R7),1.02 ± 0.026
